Compound in assay [1]: ClCC(=O)N[C@@H]1CCCc2ccccc12
In words: log2 mean competition ratio of IA-DTB cysteine labelling (DMSO/compound) (log2 ratio); higher = stronger cysteine engagement by compound. To be noted: treatment time: 4 h, cell line lysate: HEK293T. The procedure:
(§1)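 IA-DTB competitive cysteine chemoproteomics in HEK293T RIPA lysate. Lysates were treated with compound 29 or 30 at 50 or 200 µM for 4 h, then IA-DTB (500 µM, 1 h), trypsin-digested, NeutrAvidin-enriched and analysed by diaPASEF. Competition ratio = intensity DMSO / intensity compound (n=4 treated, n=64 DMSO); binding: mean log2 CR ≥ 1 and p ≤ 0.05 plus QC filters. Target is the cysteine site.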

The chains behind the UniProt entries cited, without tags or fusion partners. Where a name states a change or a piece, a line headed by the entry shows the natural chain unless it says otherwise.
UniProt Q9Y3T6: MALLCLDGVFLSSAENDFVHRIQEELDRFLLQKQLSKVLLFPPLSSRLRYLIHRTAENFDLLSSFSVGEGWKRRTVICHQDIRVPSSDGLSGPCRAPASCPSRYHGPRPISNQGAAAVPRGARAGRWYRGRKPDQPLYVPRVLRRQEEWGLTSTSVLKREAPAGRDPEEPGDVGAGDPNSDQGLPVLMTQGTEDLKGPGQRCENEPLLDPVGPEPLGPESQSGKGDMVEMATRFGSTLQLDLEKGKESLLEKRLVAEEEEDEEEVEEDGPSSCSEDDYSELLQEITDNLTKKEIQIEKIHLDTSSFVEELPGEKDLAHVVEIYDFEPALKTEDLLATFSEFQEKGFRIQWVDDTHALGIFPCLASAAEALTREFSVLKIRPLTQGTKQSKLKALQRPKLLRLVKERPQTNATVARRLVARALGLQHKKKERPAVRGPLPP
UniProt Q05397, whole entry, looked up: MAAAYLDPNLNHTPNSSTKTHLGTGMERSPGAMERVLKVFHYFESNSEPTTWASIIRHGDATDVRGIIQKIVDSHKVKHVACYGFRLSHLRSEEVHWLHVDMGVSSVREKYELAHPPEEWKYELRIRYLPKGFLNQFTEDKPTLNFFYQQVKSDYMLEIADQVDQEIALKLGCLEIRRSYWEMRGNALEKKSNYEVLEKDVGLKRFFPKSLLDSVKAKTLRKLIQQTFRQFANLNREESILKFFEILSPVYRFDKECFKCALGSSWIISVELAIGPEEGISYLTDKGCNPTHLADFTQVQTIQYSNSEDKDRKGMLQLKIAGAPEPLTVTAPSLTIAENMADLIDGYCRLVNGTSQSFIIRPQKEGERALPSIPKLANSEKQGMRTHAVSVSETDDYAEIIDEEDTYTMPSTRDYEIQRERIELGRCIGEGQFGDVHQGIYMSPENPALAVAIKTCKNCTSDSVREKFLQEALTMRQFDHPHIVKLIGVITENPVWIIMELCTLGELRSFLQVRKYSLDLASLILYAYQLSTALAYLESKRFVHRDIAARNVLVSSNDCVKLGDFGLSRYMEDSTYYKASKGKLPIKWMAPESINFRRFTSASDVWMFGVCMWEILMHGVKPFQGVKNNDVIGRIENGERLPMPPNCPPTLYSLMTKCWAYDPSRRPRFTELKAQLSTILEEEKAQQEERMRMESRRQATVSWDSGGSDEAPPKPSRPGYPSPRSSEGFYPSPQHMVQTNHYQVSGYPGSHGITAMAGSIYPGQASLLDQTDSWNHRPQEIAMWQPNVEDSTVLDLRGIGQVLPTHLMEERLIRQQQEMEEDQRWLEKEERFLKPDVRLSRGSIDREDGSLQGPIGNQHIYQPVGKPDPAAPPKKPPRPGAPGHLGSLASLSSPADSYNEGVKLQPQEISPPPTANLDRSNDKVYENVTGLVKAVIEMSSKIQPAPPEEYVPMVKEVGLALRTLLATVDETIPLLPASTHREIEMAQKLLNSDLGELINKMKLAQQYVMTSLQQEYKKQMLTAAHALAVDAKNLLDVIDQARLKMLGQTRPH
UniProt P48634: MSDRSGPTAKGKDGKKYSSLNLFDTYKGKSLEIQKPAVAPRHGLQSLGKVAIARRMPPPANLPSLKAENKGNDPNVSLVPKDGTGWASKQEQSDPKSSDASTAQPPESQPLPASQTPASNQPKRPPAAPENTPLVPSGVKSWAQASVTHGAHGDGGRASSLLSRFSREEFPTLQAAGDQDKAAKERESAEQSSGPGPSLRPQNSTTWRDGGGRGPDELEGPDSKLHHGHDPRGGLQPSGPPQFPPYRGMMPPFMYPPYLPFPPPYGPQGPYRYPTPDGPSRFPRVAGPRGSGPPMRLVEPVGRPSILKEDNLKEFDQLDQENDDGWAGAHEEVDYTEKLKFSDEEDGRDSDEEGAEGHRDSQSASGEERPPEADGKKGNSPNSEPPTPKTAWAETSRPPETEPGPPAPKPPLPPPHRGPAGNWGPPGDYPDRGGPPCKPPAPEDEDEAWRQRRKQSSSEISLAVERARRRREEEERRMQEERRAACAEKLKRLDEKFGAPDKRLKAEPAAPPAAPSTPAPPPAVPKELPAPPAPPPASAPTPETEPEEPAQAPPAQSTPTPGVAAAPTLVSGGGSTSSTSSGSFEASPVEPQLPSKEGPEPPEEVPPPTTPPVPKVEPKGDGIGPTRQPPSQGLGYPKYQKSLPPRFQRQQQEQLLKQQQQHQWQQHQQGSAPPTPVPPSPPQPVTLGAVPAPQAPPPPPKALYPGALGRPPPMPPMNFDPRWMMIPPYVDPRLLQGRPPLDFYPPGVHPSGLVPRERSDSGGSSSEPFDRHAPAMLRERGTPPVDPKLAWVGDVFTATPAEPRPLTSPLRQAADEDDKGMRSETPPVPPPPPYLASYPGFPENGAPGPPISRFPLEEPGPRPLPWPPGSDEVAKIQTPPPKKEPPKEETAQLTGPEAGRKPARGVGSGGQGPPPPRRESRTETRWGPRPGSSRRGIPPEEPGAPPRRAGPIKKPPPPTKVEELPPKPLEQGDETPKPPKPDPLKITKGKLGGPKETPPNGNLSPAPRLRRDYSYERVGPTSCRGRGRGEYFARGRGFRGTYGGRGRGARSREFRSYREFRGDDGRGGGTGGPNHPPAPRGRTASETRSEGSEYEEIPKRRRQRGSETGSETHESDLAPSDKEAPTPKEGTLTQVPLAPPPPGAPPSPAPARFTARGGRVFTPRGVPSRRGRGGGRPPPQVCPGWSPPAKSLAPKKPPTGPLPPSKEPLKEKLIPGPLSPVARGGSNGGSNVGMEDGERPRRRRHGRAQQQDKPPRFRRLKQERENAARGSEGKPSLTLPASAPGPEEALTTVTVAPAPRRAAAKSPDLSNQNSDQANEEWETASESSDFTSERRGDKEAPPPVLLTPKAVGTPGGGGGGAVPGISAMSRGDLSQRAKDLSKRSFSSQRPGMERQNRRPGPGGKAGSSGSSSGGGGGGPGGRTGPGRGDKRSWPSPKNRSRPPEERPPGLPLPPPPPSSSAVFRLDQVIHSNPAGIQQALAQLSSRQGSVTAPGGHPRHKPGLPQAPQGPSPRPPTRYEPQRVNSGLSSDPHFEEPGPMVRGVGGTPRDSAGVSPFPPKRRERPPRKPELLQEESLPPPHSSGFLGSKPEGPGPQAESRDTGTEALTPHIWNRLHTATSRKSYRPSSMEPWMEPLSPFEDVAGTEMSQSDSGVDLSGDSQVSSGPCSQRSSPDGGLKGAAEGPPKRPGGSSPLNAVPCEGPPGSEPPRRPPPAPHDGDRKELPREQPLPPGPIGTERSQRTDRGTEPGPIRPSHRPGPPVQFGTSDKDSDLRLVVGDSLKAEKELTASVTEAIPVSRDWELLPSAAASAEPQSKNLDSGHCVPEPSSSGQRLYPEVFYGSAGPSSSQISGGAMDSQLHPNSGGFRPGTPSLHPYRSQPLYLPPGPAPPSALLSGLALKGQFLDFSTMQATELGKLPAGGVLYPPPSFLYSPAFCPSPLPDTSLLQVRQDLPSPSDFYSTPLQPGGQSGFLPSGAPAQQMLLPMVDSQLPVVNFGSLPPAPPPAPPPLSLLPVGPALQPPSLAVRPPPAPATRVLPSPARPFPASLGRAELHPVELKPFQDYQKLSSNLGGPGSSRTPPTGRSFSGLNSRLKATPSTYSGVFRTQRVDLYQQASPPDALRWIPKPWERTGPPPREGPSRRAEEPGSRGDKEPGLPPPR
UniProt Q9UJ41: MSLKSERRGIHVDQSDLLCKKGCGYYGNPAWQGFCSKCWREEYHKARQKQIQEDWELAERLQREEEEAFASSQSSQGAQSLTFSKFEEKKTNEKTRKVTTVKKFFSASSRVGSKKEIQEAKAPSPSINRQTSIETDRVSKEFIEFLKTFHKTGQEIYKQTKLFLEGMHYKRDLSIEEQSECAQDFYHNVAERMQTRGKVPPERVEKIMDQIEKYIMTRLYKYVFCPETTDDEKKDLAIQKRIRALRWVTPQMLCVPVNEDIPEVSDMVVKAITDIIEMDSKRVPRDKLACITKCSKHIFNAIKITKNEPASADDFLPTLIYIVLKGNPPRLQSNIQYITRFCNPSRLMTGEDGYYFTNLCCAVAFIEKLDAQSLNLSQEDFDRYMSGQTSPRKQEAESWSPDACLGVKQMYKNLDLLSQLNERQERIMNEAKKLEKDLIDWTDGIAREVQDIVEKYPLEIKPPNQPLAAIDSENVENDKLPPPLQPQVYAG
UniProt Q92696: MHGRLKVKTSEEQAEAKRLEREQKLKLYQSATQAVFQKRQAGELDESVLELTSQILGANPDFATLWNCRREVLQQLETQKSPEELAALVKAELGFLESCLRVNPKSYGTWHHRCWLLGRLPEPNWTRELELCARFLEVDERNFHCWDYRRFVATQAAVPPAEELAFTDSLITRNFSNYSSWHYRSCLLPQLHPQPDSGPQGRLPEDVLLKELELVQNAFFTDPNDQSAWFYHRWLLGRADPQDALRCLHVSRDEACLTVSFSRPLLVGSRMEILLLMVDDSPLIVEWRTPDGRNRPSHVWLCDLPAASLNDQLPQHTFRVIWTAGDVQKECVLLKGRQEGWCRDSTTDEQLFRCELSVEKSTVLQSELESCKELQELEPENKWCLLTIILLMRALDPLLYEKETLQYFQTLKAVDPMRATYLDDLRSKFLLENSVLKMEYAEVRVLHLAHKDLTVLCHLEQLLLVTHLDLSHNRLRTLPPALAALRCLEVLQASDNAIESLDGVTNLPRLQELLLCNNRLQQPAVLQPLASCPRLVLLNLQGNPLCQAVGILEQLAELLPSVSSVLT
UniProt Q9UL25: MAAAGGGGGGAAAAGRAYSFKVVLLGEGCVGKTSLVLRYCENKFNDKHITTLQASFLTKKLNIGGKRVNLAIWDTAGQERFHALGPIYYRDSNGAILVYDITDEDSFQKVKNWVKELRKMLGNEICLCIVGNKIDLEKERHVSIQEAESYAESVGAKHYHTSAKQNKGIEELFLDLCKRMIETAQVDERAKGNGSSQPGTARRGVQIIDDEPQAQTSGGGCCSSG
UniProt Q9UNM6: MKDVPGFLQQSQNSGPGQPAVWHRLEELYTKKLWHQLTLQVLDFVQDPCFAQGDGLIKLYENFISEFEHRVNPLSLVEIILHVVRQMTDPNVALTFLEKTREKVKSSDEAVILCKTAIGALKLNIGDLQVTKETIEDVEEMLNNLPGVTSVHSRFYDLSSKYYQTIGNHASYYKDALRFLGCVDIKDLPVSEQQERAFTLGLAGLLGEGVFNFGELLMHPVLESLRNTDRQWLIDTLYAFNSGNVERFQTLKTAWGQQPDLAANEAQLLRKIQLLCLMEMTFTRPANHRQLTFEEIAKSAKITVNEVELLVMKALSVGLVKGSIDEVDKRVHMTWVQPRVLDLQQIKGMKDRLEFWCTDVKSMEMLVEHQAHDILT
UniProt Q9P2W1: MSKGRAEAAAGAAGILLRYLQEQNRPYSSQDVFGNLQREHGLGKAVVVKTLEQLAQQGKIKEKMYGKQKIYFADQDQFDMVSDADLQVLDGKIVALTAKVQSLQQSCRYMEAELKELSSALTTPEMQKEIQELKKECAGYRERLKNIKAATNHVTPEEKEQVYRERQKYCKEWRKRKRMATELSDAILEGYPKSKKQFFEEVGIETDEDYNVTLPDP
UniProt Q8WU10: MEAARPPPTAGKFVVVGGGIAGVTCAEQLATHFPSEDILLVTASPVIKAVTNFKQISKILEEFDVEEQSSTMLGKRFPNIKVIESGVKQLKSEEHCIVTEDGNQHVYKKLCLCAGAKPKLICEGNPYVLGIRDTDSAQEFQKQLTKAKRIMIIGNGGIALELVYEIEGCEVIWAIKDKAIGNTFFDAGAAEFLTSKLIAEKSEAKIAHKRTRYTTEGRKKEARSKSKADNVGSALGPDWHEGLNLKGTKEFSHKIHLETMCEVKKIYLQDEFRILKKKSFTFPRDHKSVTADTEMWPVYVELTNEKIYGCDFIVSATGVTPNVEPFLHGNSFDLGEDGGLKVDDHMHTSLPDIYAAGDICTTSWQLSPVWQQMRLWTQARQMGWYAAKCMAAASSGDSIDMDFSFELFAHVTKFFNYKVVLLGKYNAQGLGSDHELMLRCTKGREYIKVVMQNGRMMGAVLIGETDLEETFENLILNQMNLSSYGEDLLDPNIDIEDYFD
UniProt Q99638: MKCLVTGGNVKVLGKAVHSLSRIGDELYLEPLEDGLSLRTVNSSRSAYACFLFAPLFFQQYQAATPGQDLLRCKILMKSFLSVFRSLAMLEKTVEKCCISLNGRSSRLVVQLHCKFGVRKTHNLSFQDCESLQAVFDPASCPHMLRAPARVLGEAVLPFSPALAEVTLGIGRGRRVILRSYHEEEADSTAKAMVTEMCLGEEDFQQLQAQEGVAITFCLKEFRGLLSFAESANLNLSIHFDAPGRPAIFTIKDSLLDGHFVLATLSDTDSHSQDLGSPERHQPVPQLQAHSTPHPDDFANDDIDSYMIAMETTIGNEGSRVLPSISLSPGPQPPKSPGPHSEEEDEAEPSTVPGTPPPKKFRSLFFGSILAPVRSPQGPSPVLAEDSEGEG

Compound in assay [2]: ClCC(=O)N[C@H]1CCCc2ccccc12
The description is as above. The conditions noted are these: treatment time: 4 h, cell line lysate: HEK293T. The procedure: as §1

The list shows a part of the results. The data scatter; read single values as rough.

On to PSME4 C1100 (UniProt Q14997), for which the “log2 mean competition ratio” value in assay [1] (50 µM) was 0.032; in assay [1] (200 µM), -0.0666; in assay [2] (50 µM) it was -0.232; in assay [2] (200 µM), 0.0565.

Consider R3HCC1 C100 (UniProt Q9Y3T6+R3HCC1), for which the “log2 mean competition ratio” value is 0.0264 in assay [1] (50 µM), -0.0391 in assay [1] (200 µM), 0.213 in assay [2] (50 µM) and 0.191 in assay [2] (200 µM).

For RAC1 C6 (UniProt P63000), the “log2 mean competition ratio” value in assay [1] (50 µM) is -0.0852; in assay [1] (200 µM), -0.0253; in assay [2] (50 µM), -0.207; in assay [2] (200 µM) it was -0.0843.

Turning to PTK2 C173 (UniProt Q05397), the “log2 mean competition ratio” value in assay [1] (50 µM) was 0.233; in assay [1] (200 µM), -0.0466; in assay [2] (50 µM) it was -0.372; in assay [2] (200 µM), -0.124.

Consider PTGIS C231, for which the “log2 mean competition ratio” value is -0.0821 in assay [1] (50 µM), -0.169 in assay [1] (200 µM), -0.257 in assay [2] (50 µM) and -0.359 in assay [2] (200 µM).

In the case of PRRC2A C1821 (UniProt P48634), the “log2 mean competition ratio” value is -0.03 in assay [1] (50 µM), -0.17 in assay [1] (200 µM), -0.216 in assay [2] (50 µM) and -0.149 in assay [2] (200 µM).

For RABGEF1 C404 (UniProt Q9UJ41), the “log2 mean competition ratio” value in assay [1] (50 µM) is -0.303; in assay [1] (200 µM), 0.286; in assay [2] (50 µM) it was -0.384; in assay [2] (200 µM), 0.13.

Take RABGGTA C354 (UniProt Q92696): the “log2 mean competition ratio” value in assay [1] (50 µM) is -0.131; in assay [1] (200 µM), -0.244; in assay [2] (50 µM), -0.0315; in assay [2] (200 µM) it was -0.207.

For the target RAB21 C40 (UniProt Q9UL25), the “log2 mean competition ratio” value in assay [1] (50 µM) was 0.13; in assay [1] (200 µM) it was -0.149; in assay [2] (50 µM), 0.061; in assay [2] (200 µM), 0.0214.

For the target PSMC3 C240, the “log2 mean competition ratio” value is 0.0313 in assay [1] (50 µM), 0.151 in assay [1] (200 µM), 0.0184 in assay [2] (50 µM) and 0.073 in assay [2] (200 µM).

On to PTDSS1 C347 (UniProt P48651), for which the “log2 mean competition ratio” value in assay [1] (50 µM) was -0.511; in assay [1] (200 µM), 0.161; in assay [2] (50 µM), -0.107; in assay [2] (200 µM), 0.255.

QRSL1 C278 (UniProt Q9H0R6): the “log2 mean competition ratio” value in assay [1] (50 µM) is -0.0199; in assay [1] (200 µM), -0.381; in assay [2] (50 µM) it was -0.202; in assay [2] (200 µM) it was -0.344.

With RABGGTA C532 (UniProt Q92696), the “log2 mean competition ratio” value in assay [2] (50 µM) worked out at 0.48; in assay [2] (200 µM) it was 0.264.

With PSMD13 C114 (UniProt Q9UNM6), the “log2 mean competition ratio” value in assay [1] (50 µM) is -0.1; in assay [1] (200 µM) it was -0.221; in assay [2] (50 µM), 0.167; in assay [2] (200 µM), -0.0474.

PTPRG C1160 (UniProt P23470): the “log2 mean competition ratio” value was -0.109 in assay [1] (50 µM), -0.104 in assay [1] (200 µM), -0.038 in assay [2] (50 µM) and 0.0299 in assay [2] (200 µM).

Regarding PSMC3IP C107 (UniProt Q9P2W1), the “log2 mean competition ratio” value in assay [2] (50 µM) is 0.0014; in assay [2] (200 µM), 0.254.

As to RAB11FIP1 C1028 (UniProt Q6WKZ4), the “log2 mean competition ratio” value in assay [2] (50 µM) turned out to be 0.234; in assay [2] (200 µM) it was 0.262.

Consider RAD54L2 C71 (UniProt Q9Y4B4), for which the “log2 mean competition ratio” value is -0.00486 in assay [1] (50 µM), -0.517 in assay [1] (200 µM), 0.472 in assay [2] (50 µM) and 0.0454 in assay [2] (200 µM).

PYROXD1 C122 (UniProt Q8WU10): the “log2 mean competition ratio” value is -0.11 in assay [2] (50 µM) and 0.0404 in assay [2] (200 µM).

Turning to RAD9A C3 (UniProt Q99638), the “log2 mean competition ratio” value was -0.0137 in assay [1] (50 µM), 0.0394 in assay [1] (200 µM), 0.322 in assay [2] (50 µM) and 0.0472 in assay [2] (200 µM).

On to PRR14L C1640 (UniProt Q5THK1), for which the “log2 mean competition ratio” value came out at 0.0067 in assay [2] (50 µM) and 0.366 in assay [2] (200 µM).

Consider PRRC2B C246, for which the “log2 mean competition ratio” value was -0.216 in assay [1] (50 µM), -0.273 in assay [1] (200 µM), 0.0381 in assay [2] (50 µM) and -0.334 in assay [2] (200 µM).

Take PRR14L C1271 (UniProt Q5THK1): the “log2 mean competition ratio” value in assay [2] (50 µM) stood at 0.205; in assay [2] (200 µM) it was 0.425.

Take PTCH1 C699: the “log2 mean competition ratio” value is -0.571 in assay [2] (50 µM) and -0.0491 in assay [2] (200 µM).

For the target RAB18 C110, the “log2 mean competition ratio” value in assay [1] (50 µM) is 0.0121; in assay [1] (200 µM), 0.206; in assay [2] (50 µM), 0.197; in assay [2] (200 µM), -0.241.

In the case of “PSME1_(C101,C101,C106,C106) (UniProt Q06323)”, the “log2 mean competition ratio” value in assay [2] (50 µM) is -0.204; in assay [2] (200 µM), -0.37.

As to RAD51C C124 (UniProt O43502), the “log2 mean competition ratio” value in assay [2] (50 µM) is -0.14; in assay [2] (200 µM), 0.0742.

For the target PTPN13 C798 (UniProt Q12923), the figures for the “log2 mean competition ratio” value in assay [2] (50 µM) and in assay [2] (200 µM) were 0.15 and 0.559, respectively.

Turning to RAD50 C133, the “log2 mean competition ratio” value in assay [2] (50 µM) was -0.378; in assay [2] (200 µM) it was 0.269.

These data come from the supplement of paper PMC11732987, “Enantioselective OTUD7B fragment discovery through chemoproteomics screening and high-throughput optimisation” (Communications Chemistry, 2025).
